Test results taken from PMC10830421.
No constants are given. Whether binding was seen depends on the method and setting. In cells and extracts the contact can be indirect. These calls come from enrichment with a bait or labelling near it, and not all partners need be listed. Tags and fused reporters may be left off the sequences shown.

T1: RTN4IP1-V5-TurboID (reticulon 4-interacting protein 1 fused to V5 and TurboID) (human) (UniProt Q8WWV3)
T1 sequence: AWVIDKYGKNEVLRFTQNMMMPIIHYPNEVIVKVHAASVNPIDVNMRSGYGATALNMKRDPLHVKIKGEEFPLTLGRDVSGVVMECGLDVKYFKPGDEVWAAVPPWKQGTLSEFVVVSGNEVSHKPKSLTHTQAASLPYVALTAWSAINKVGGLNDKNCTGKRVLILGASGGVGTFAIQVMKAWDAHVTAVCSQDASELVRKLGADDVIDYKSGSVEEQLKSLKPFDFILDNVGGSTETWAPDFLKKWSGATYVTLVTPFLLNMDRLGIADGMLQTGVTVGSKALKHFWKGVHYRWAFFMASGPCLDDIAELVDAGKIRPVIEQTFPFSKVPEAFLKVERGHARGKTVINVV


Biological target: T1, RTN4IP1-V5-TurboID (reticulon 4-interacting protein 1 fused to V5 and TurboID) (human)
Assay: proximity labelling; RTN4IP1-V5-TurboID stable cells, 5 ng/ml doxycycline 16 h, 50 uM biotin 30 min at 37 °C; biotinylated peptides enriched on streptavidin beads, LC-MS/MS; compared with MTS-TurboID (Matrix-V5-TurboID) control, P < 0.05, FC > 2

| binding | Binder |
| --- | --- |
| binds | COQ3 (enzyme, UniProt Q9NZJ6 86-369) STSQTTVDSGEVKTFLALAHKWWDEQGVYAPLHSMNDLRVPFIRDNLLKTIPNHQPGKPLLGMKILDVGCGGGLLTEPLGRLGASVIGIDPVDENIKTAQCHKSFDPVLDKRIEYRVCSLEEIVEETAETFDAVVASEVVEHVIDLETFLQCCCQVLKPGGSLFITTINKTQLSYALGIVFSEQIASIVPKGTHTWEKFVSPETLESILESNGLSVQTVVGMLYNPFSGYWHWSENTSLNYAAYAVKSRVQEHPASAEFVLKGETEELQANACTNPAVHEKLKK |
| binds | COQ5 (enzyme, UniProt Q5HYK3 43-327) LSQEKRAAETHFGFETVSEEEKGGKVYQVFESVAKKYDVMNDMMSLGIHRVWKDLLLWKMHPLPGTQLLDVAGGTGDIAFRFLNYVQSQHQRKQKRQLRAQQNLSWEEIAKEYQNEEDSLGGSRVVVCDINKEMLKVGKQKALAQGYRAGLAWVLGDAEELPFDDDKFDIYTIAFGIRNVTHIDQALQEAHRVLKPGGRFLCLEFSQVNNPLISRLYDLYSFQVIPVLGEVIAGDWKSYQYLVESIRRFPSQEEFKDMIEDAGFHKVTYESLTSGIVAIHSGFKL |
